Three substances from paper PMC10914257 can be followed below.

Experiment in all cases: two-hybrid; clones in pGADT7 and pGBKT7 in yeast strain AH109; growth on SD-Ade-Leu-Trp-His or SD-Leu-Trp-His plates with 3-amino-1,2,4-triazole, 5 days at 30°C
In experiment [1] the target is T1, Cep131-C1 (782-1114 aa) (Drosophila) (UniProt A1Z7Z9).
T1 sequence: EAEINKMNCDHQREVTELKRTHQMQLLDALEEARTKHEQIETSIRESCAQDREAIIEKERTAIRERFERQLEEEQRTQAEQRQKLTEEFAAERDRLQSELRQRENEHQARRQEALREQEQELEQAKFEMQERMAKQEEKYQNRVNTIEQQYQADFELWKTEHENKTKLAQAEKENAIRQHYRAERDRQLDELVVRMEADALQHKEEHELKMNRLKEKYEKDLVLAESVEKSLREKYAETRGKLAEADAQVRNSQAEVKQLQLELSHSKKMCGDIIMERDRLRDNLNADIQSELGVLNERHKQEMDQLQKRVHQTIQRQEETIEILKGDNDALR

The target in experiment [2] is T2, Cep131-FL (1-1114 aa) (Drosophila) (UniProt A1Z7Z9).
T2 sequence: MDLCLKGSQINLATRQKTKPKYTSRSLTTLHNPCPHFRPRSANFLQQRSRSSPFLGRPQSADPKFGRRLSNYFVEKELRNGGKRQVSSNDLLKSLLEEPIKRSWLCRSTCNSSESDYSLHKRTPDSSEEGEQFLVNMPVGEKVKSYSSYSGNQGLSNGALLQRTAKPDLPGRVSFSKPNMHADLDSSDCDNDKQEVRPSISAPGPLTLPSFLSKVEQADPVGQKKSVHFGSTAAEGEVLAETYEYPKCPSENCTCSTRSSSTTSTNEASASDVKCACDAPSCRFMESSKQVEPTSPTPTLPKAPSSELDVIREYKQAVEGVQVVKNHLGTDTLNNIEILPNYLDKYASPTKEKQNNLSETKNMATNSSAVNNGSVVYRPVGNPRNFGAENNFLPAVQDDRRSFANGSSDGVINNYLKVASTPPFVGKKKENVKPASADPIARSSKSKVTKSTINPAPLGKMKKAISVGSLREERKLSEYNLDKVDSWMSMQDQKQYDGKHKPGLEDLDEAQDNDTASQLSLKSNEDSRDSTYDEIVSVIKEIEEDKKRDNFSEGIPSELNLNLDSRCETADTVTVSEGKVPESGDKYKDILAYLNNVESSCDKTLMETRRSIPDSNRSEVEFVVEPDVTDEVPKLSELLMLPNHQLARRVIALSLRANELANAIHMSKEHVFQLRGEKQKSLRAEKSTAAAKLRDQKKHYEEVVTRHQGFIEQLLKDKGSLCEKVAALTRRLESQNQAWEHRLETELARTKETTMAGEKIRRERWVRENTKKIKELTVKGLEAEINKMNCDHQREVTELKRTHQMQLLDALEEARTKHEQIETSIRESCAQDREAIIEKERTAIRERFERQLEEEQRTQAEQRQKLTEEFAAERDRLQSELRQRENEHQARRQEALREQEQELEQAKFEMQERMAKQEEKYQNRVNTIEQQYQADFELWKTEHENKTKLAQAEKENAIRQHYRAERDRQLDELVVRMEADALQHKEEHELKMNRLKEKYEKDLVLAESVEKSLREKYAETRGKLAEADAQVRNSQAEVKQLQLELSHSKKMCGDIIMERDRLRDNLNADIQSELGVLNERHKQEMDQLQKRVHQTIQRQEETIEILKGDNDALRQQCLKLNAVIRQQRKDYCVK

The target of experiment [3] is T3, Cep131-M1 (481-781 aa) (Drosophila) (UniProt A1Z7Z9).
T3 sequence: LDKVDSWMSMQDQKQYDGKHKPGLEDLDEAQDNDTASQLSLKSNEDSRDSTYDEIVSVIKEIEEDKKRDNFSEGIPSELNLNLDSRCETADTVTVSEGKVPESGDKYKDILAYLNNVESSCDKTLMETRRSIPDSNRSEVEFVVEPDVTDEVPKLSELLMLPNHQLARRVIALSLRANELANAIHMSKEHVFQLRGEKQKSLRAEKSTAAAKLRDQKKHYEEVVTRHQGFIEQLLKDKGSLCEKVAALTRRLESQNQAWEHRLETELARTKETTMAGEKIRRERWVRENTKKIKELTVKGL

For experiment [4], the target named is T4, Cep131-N1 (1-480 aa) (Drosophila) (UniProt A1Z7Z9).
T4 sequence: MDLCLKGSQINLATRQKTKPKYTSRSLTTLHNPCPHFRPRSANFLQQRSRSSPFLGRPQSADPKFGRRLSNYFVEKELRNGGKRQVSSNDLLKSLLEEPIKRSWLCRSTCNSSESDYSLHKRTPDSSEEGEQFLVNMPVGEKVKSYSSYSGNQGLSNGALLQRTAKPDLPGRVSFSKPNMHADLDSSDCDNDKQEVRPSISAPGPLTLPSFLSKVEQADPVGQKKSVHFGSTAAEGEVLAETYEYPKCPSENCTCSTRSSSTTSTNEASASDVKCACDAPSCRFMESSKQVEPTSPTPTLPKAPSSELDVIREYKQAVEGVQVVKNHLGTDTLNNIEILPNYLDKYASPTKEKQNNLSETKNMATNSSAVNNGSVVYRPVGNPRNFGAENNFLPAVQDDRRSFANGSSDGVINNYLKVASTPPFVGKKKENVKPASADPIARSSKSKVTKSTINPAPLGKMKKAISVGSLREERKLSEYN

No constants are given. Whether binding was seen depends on the method and setting. For part of these data: Binding can be weak; no strength is given.

For “Cep162-C (448-897 aa), yeast two-hybrid (Drosophila) (domain or fragment)”, the binding result is “binds” in experiment [1], “binds” in experiment [2], “no binding” in experiment [3] and “binds” in experiment [4].

Regarding Cep162-FL (from UniProt Q9W474), the binding result in experiment [2] is “binds”.

As to “Cep162-N (1-447 aa), yeast two-hybrid (Drosophila) (domain or fragment)”, the binding entry in experiment [2] is on record as “no binding”.
